Laboratory results published in PubChem BioAssay AID504444 (National Center for Advancing Translational Sciences (NCATS), 2011).
Out of some 360,000 compounds screened, about 7,500 (2.1%) were called active. The inconclusive results got no clear call from the source; some entries with a clear call stand among them for comparison. The call rests on the fitted dose curve; in most records, active means well fitted inhibition curve with a large enough effect; inconclusive means small, poorly fitted or top-dose-only effect, or effect the other way; inactive means flat fitted curve, though single readings scatter. Potencies of inconclusive entries are doubtful fits and often do not repeat.

Experiment: Nrf2 qHTS screen for inhibitors; further: nearly all actives have a fitted effect of over 60% in size
Conditions: A549 ARE-Fluc reporter, luciferase luminescence, 18-24 h; activity change, negative = inhibition: at 46 µM (top of the series)
Outline: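 Nrf2 activity is the BugLite luminescence, read 15 min after reagent at room temperature, following CellTiter-Fluor cytotoxicity readout (30 min, 37C). Compound titrations were applied for 18-24 h to 5000 A549 ARE_Fluc cells/well in 5% FBS OPTI-MEM.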
On the % scale 0 is the no-effect control and ±100 the full control effect; potency means the concentration at half of the fitted maximal effect.

Compound | Potency | activity change, negative = inhibition
CN(C(=O)/C=C/c1ccccc1)C1CCCCC1 | inconclusive: 4.11 µM [activator, full curve] | –
O=C(NN1C(=O)/C(=C\c2ccc(O)c([N+](=O)[O-])c2)SC1=S)c1ccccc1Cl | inconclusive: 9.2 µM [falling, partial curve, poor fit] | –
CCc1ccc(-c2cn(-c3nc(C)cc(C)n3)c(=N)o2)cc1 | inconclusive: 13 µM [falling, partial curve, poor fit] | –
CCOC(=O)c1c[nH]n(-c2ccc(C)cc2)c1=O | inconclusive: 23.1 µM [activator, single point] | –
COc1ccc(OCC(=O)NC2CC(C)(C)NC(C)(C)C2)cc1 | inconclusive: 29.1 µM [activator, single point] | –
CN1C(=O)C(C)(C)c2cc(S(=O)(=O)N3CCC(C(=O)NCc4ccccc4Cl)CC3)ccc21 | inconclusive: 6.51 µM [falling, partial curve] | –
CCOC(=O)N1CCN(Cc2nc(-c3ccc(OC)cc3)no2)CC1 | inconclusive: 20.6 µM [falling, single point] | –
Cc1cc(N2CCN(c3ccc(C(F)(F)F)cc3[N+](=O)[O-])CC2)c2ccccc2n1 | – | inactive: -27.5%
C=C(C)CNC(=S)N/N=C/C1=CCC2CC1C2(C)C (stereo unspecified) | – | inactive: -13.9%
CCC(C(=O)N1CCN(c2ccccc2)CC1)n1nc(C)c2sc3ccccc3c2c1=O (stereo unspecified) | inconclusive: 25.9 µM [activator, single point] | –
Cc1ccc2cc(C(c3nnnn3C3CCCC3)N(Cc3cccnc3)Cc3ccco3)c(=O)[nH]c2c1 (stereo unspecified) | inconclusive: 20.6 µM [falling, single point] | –
CCOC(=O)c1sc2nc(CC(=O)OC)nc(N3CCN(c4ccccn4)CC3)c2c1C | – | inactive: -4.94%
COc1ccc(-c2nnc(-c3ccc(F)cc3)o2)cc1 | inconclusive: 0.92 µM [activator, full curve, poor fit] | –
O=C(CSc1nc2ccccc2n1Cc1c(F)cccc1Cl)N1CCN(c2ccc(F)cc2)CC1 | inconclusive: 29.1 µM [falling, single point] | –
Cc1cccc(Oc2ccc(S(=O)(=O)N3CCCCC3)cc2N)c1 | inconclusive: 29.1 µM [falling, single point] | –
CCOc1ccc(CSC2=NCCN2)cc1Cl | inconclusive: 16.4 µM [activator, single point] | –
Cc1c(NC(=O)CSc2nnnn2-c2ccc(O)cc2)c(=O)n(-c2ccccc2)n1C | inconclusive: 1.84 µM [falling, partial curve, poor fit] | –
CCC(=O)N(CCc1ccccc1C)Cc1cc2ccc(C)cc2[nH]c1=O | inconclusive: 29.1 µM [falling, partial curve, poor fit] | –
Cc1cccc(-c2oc3ccc(-c4ccc5c(c4)OCO5)cc3c2C#Cc2cncn2C)c1 | inconclusive: 10.3 µM [activator, partial curve, poor fit] | –
CCOc1cccc(-c2nnc3sc(-c4ccco4)nn23)c1 | inconclusive: 8.2 µM [falling, partial curve, poor fit] | –
CCOc1ccccc1NC(=S)NCCCn1ccnc1 | inconclusive: 0.0058 µM [falling, full curve, poor fit] | –
CCOC(=O)C1=C(COC(=O)c2cccc(N(C)C)c2)NC(=O)NC1C (stereo unspecified) | – | inactive: 1.42%

Compound | Potency | activity change, negative = inhibition
O=C(CCn1c(=S)[nH]c2ccccc2c1=O)NCCCN1CCCC1=O | inconclusive: 4.61 µM [falling, single point] | –
Nc1ccc(OCc2ccccc2)cc1[N+](=O)[O-] | inconclusive: 29.1 µM [activator, single point] | –
O=S(=O)(c1cccs1)N1CCN(CC(O)COc2cc(Cl)ccc2Cl)CC1 (stereo unspecified) | inconclusive: 20.6 µM [falling, single point] | –
COc1ccc(/C=C2/CCc3ccccc3C2=O)cc1OC | active: 23.1 µM | –
Cc1ccc(CNC(=O)C(C)n2ccc3cc(S(=O)(=O)N4CCCC4)ccc32)cc1 (stereo unspecified) | inconclusive: 14.6 µM [falling, partial curve, poor fit] | –
CCN(CC)C(=O)c1cc(-c2ccc(Cl)cc2)on1 | – | inactive: 22%
O=[N+]([O-])c1ccccc1/C=N/NC1=NCCCCC1 | inconclusive: 20.6 µM [activator, single point] | –
COc1ccccc1-c1cnn2c(NCCc3ccccc3)cc(C)nc12 | inconclusive: 5.17 µM [activator, full curve] | –
Cc1ccc(-n2c(O)c(C=Nc3cc(C)on3)c3ccccc3c2=O)c(C)c1 | active: 23.1 µM | –
O=C(c1ccccc1)N1N=C(C(F)(F)F)CC1(O)c1ccccc1O (stereo unspecified) | inconclusive: 20.6 µM [falling, single point] | –
O=C1c2ccccc2NC(c2ccco2)N1/N=C/c1ccco1 (stereo unspecified) | inconclusive: 2.59 µM [activator, full curve] | –
COC(=O)COc1ccc(-c2nccc(-c3ccccn3)n2)cc1 | active: 7.31 µM | –
O=C(C1CCN(CCCc2ccccc2)CC1)N(CCc1ccccc1)Cc1ccccc1 | inconclusive: 8.2 µM [falling, partial curve, poor fit] | –
CCn1c(CCNC(=O)c2ccc(OC)cc2)nnc1SCc1ccc(Cl)cc1Cl | inconclusive: 14.6 µM [falling, partial curve, poor fit] | –
O=C(CSc1nnc2c(Cl)cc(C(F)(F)F)cn12)N(Cc1ccccc1)Cc1ccccc1 | – | inactive: -24.5%
CCN(c1ccccc1)S(=O)(=O)c1ccc(C(=O)Nc2ccc(C)cn2)cc1 | inconclusive: 23.1 µM [falling, single point] | –
Cc1occc1-c1nnc(SCC(=O)Nc2nc(C(C)(C)C)cs2)o1 | inconclusive: 20.6 µM [falling, single point] | –
Cc1cc(/C=C(\C#N)C(=O)NCc2ccco2)c(C)[nH]1 | inconclusive: 6.51 µM [activator, single point] | –
Cc1ccccc1Cn1cccc1/C=C1/C(=N)N2C=CSC2=NC1=O | inconclusive: 16.4 µM [falling, single point] | –
O=C(Nc1ccccc1C(=O)N1CCCCC1)c1ccco1 | inconclusive: 10.3 µM [falling, partial curve, poor fit] | –
CC(C)CCN1C(N(C)C)=NC[C@@H]1C | inconclusive: 5.17 µM [falling, single point] | –
O=[N+]([O-])c1ccccc1NCc1ccc(O)c2ncccc12 | active: 6.51 µM | –

In a second layout: results already given
Compound	Potency	activity change, negative = inhibition
O=C(CCn1c(=S)[nH]c2ccccc2c1=O)NCCCN1CCCC1=O	inconclusive: 4.61 µM [falling, single point]	–
O=[N+]([O-])c1ccccc1/C=N/NC1=NCCCCC1	inconclusive: 20.6 µM [activator, single point]	–
COc1ccccc1-c1cnn2c(NCCc3ccccc3)cc(C)nc12	inconclusive: 5.17 µM [activator, full curve]	–

Further results follow.

Compound | Potency | activity change, negative = inhibition
CC(C)n1c(CSCc2ccc(Cl)cc2Cl)n[nH]c1=S | inconclusive: 1.64 µM [activator, partial curve, poor fit] | –
CCc1ccc2nc(SCC(=O)NCC3CCCO3)c(C#N)cc2c1 (stereo unspecified) | inconclusive: 29.1 µM [activator, partial curve, poor fit] | –
CCNc1ccc2c(Cl)cc(=O)oc2c1 | inconclusive: 8.2 µM [falling, partial curve] | –
CCN(C(=O)CSc1nc2n[nH]c(C)c2c(=N)n1-c1ccc(Cl)c(C)c1)c1cccc(C)c1 | – | inactive: -21.5%
COc1ccc(C2CC(=O)N(CCCN(C)CCc3ccc(OC)c(OC)c3)C2)cc1 (stereo unspecified) | inconclusive: 0.92 µM [falling, full curve, poor fit] | –
COc1ccccc1-c1cc2nc(C)c(CCC(=O)NCc3cccc(Cl)c3)c(C)n2n1 | inconclusive: 14.6 µM [falling, partial curve, poor fit] | –
CCOC(=O)C1(C(F)(F)F)N=C(c2cccnc2)OC(N2CCOCC2)=N1 (stereo unspecified) | inconclusive: 9.2 µM [activator, partial curve, poor fit] | –
CC1(CCc2ccccc2)NC(=O)N(Cc2cc([N+](=O)[O-])cc3c2OCOC3)C1=O (stereo unspecified) | inconclusive: 9.2 µM [falling, partial curve] | –
CCOc1cccc(C2CC(=O)Nc3cc(OC)c(OC)cc32)c1 (stereo unspecified) | inconclusive: 9.2 µM [falling, partial curve, poor fit] | –
CCOC(=O)C1CCCN(CCC(=O)Nc2cccc(C)c2)C1 (stereo unspecified) | inconclusive: 7.31 µM [activator, partial curve, poor fit] | –
CCOC(=O)c1[nH]c2c(c1-c1ccccc1)C(=O)CC(c1ccc(OC)c(OC)c1)C2 (stereo unspecified) | active: 20.6 µM | –
CC1(C)Cc2ccccc2C(NNC(=O)c2ccccn2)=N1 | inconclusive: 29.1 µM [falling, single point] | –
O=C(Nc1nnc(S(=O)(=O)N2CCCc3ccccc32)s1)c1ccccc1 | – | inactive: 7.42%
COC(=O)CN1CCN(C(=O)c2ccc(F)cc2)c2ccccc2C1 | – | inactive: 9.79%
Cc1c(C(=O)Nc2ccccc2)sc2nc3n(c(=O)c12)CCCCC3 | inconclusive: 23.1 µM [activator, single point] | –
COc1ccc(-c2nc(-c3ccncc3)no2)cc1 | inconclusive: 1.16 µM [activator, full curve] | –
CCC1CN(C(=O)Nc2cccc3c2CCCC3)c2ccccc2O1 (stereo unspecified) | inconclusive: 29.1 µM [activator, single point] | –
COc1ccc(Nc2nc(NCCO)nc(N3CCCC3)n2)cc1 | – | inactive: -16.3%
CCNC(=O)/C(C#N)=C/c1c(N2CCN(c3ccc(OC)cc3)CC2)nc2c(C)cccn2c1=O | inconclusive: 16.4 µM [falling, single point] | –
Cc1cc(/C=N/Nc2ncnc(N)c2[N+](=O)[O-])c(C)n1-c1ccccc1 | inconclusive: 18.4 µM [falling, single point] | –
Cc1ccc(SC(C)C(=O)O/N=C(\N)c2ccncc2)cc1 (stereo unspecified) | inconclusive: 20.6 µM [falling, single point] | –
CC(C)N(C)Cc1nnnn1CC(=O)NCCc1cccc(C(F)(F)F)c1 | – | inactive: 0.794%
